The other results are listed elsewhere or left out.
These sequences were tested against T1, OsSMF1 (Oryza sativa, UniProt Q6ZLB0 1-436) (assay: protein-binding microarray (RPBM); PBS, 2% BSA, 51.3 ng/ul salmon testes DNA, 50 uM zinc acetate, 200 nM TF, 25 C, 1 h; high values mean tight binding). Details: protein: recombinant; tags: N-terminal polyhistidine and DsRed monomer fusion (pET32a); chain copies: 2; label: CyDye5-dUTP incorporated in the synthesized complementary strand; 3' TTTTT single-stranded linker to array surface; dsDNA, one strand shown.
T1 sequence: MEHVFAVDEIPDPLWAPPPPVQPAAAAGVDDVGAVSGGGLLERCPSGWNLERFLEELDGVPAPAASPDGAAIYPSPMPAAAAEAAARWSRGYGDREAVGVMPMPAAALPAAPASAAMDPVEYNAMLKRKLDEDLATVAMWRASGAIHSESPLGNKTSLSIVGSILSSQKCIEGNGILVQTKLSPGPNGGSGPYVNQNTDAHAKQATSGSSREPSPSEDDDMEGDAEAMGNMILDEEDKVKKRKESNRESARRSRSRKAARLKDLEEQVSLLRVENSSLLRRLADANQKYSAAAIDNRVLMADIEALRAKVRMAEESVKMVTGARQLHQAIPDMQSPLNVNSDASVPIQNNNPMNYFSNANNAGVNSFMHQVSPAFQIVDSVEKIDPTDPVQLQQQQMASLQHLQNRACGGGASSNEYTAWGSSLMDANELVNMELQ
How it was run: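 Binding signal here means per-feature fluorescence intensity in arbitrary units. The values were read on an Axon 4000B scanner after a custom Agilent array, double-stranded by primer extension with Cy5-dUTP, was incubated with 200 nM protein at 25 °C for 1 h in PBS with 2% BSA, salmon testes DNA and 50 µM zinc acetate, then washed. The proteins were transcription factors with an N-terminal polyhistidine tag and DsRed, expressed in E. coli BL21-CodonPlus and purified on Ni–NTA.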

| Sequence | binding signal |
| --- | --- |
| GGATCCGGGCATCTGGCTGCCCCGCCGCCACTCCGCCTAGCGGAGTCACCTAGTGCAG | 3330 fluorescence intensity (a.u.) |
| GAATGGACTAATTATTTTGCTTGTCAGCACGACGTCAGAACGGAGTCACCTAGTGCAG | 5350 fluorescence intensity (a.u.) |
| CGAGCAAACGCCGAAACGCCATGGAAACAATTTCCTGTCCCGGAGTCACCTAGTGCAG | 38100 fluorescence intensity (a.u.) |
| CTGCCTGCGCGCACCACCACCTGCTGCTCTCTCTCTCTCGCGGAGTCACCTAGTGCAG | 3650 fluorescence intensity (a.u.) |
| GCCAAGAGGAGAGGAGAGGGATAGGCGGCCGCCGCCCGTGCGGAGTCACCTAGTGCAG | 3390 fluorescence intensity (a.u.) |
| GAGCAGGGGCGATCTGTGGCCGTCCATTCGTTGTGGACGTCGGAGTCACCTAGTGCAG | 4230 fluorescence intensity (a.u.) |
| GGATGGGCTAGAAGTCACTATTTATCATCAGTGACGTGTCCGGAGTCACCTAGTGCAG | 13800 fluorescence intensity (a.u.) |
| TTCCATTATGACCTATACGTGTCAACGAGACATCGACTCTCGGAGTCACCTAGTGCAG | 9090 fluorescence intensity (a.u.) |
| GATGGAGCACATCATCATATTGTACAGGGAGAGATGGAGCCGGAGTCACCTAGTGCAG | 3340 fluorescence intensity (a.u.) |
| TATAGTAAAATACACGTGTCAACTTATGGAATAGCCTGTACGGAGTCACCTAGTGCAG | 16300 fluorescence intensity (a.u.) |
| TAATATATGATCATACTTGTTTTATATACATTGTGTCTTGCGGAGTCACCTAGTGCAG | 3190 fluorescence intensity (a.u.) |
| ATCCGGTTTTATCCGACGTGGCGGCTGAGTCGGCGCGGGACGGAGTCACCTAGTGCAG | 30700 fluorescence intensity (a.u.) |
| TCTCGTTTTCTCTTACACTGATAAATTTCTAATTTTGTTACGGAGTCACCTAGTGCAG | 3280 fluorescence intensity (a.u.) |
| AAAGGACAGCAATCCATGTCACACTGAGATATAAAGTGAGCGGAGTCACCTAGTGCAG | 3700 fluorescence intensity (a.u.) |
| CCGGCGGCAGTGGCCCGGCGGCGCCGCCACCTTCCGTGCCCGGAGTCACCTAGTGCAG | 43700 fluorescence intensity (a.u.) |
| TACGTTCTATGAATCTGTCACAAGTCATGACGCCGCGAGCCGGAGTCACCTAGTGCAG | 30100 fluorescence intensity (a.u.) |
| TAATCCAGTACTACTTGCTGTGACAGTGTGATGTGCTTGTCGGAGTCACCTAGTGCAG | 3540 fluorescence intensity (a.u.) |
| ATGCCAAAGTGTTTTCCACGTAATATTACATAGTTTATAACGGAGTCACCTAGTGCAG | 4470 fluorescence intensity (a.u.) |
| TCTCAAGATGATCATGATGATGTTATCACATATCTCCTATCGGAGTCACCTAGTGCAG | 3200 fluorescence intensity (a.u.) |
| ATTTTGAAGCACAACTATATTGACTCACTTGGAAAGGTAGCGGAGTCACCTAGTGCAG | 3780 fluorescence intensity (a.u.) |
| GAGAGGGTTTTGGCCAGCCGGATGGCTTAGCCATCCGGTTCGGAGTCACCTAGTGCAG | 24800 fluorescence intensity (a.u.) |

Quoted at random: three records from the list

| Sequence | binding signal |
| --- | --- |
| TAATATATGATCATACTTGTTTTATATACATTGTGTCTTGCGGAGTCACCTAGTGCAG | 3190 fluorescence intensity (a.u.) |
| GGATCCGGGCATCTGGCTGCCCCGCCGCCACTCCGCCTAGCGGAGTCACCTAGTGCAG | 3330 fluorescence intensity (a.u.) |
| TTCCATTATGACCTATACGTGTCAACGAGACATCGACTCTCGGAGTCACCTAGTGCAG | 9090 fluorescence intensity (a.u.) |

Additional entries:

| Sequence | binding signal |
| --- | --- |
| CCCGGCAAGCCATGGAGCTGACGCTGCTGGTGTTCGTCCTCGGAGTCACCTAGTGCAG | 4520 fluorescence intensity (a.u.) |
| CTCGTCCTGAATCGCCACGTGGCATCAGTCCCAGCCGTTGCGGAGTCACCTAGTGCAG | 36300 fluorescence intensity (a.u.) |
| ACAGGGTTGCCAAGCTCTTACTCAACCTAAACCACCAGAACGGAGTCACCTAGTGCAG | 3200 fluorescence intensity (a.u.) |
| GGCGAGCGGCGCGAAGCTCGCCAGCGTGGCGCCGAGGGAGCGGAGTCACCTAGTGCAG | 3700 fluorescence intensity (a.u.) |
| CCAGTCTAACCAGGCTGAACTGCCACGCTCACACCCTTCTCGGAGTCACCTAGTGCAG | 3570 fluorescence intensity (a.u.) |
| GGCGGCAGCAAGAGGGGTCCGCCCTCTGCGGCGCTGGCAACGGAGTCACCTAGTGCAG | 3270 fluorescence intensity (a.u.) |
| ACGTCTTGGCGTCTTGGCCTCATGGGCACCTGACGTGAGACGGAGTCACCTAGTGCAG | 3720 fluorescence intensity (a.u.) |
| TGGCTAAGTTTGGTAAGAATTTGAGTCTATAACGTGTAGGCGGAGTCACCTAGTGCAG | 3640 fluorescence intensity (a.u.) |
| GAGACGGGCCCGTCACTAACCCATCCCGCATATGGCCCAGCGGAGTCACCTAGTGCAG | 3270 fluorescence intensity (a.u.) |
| ATGGGTGGAGGAGTGGGAGGGGATTAAATATCGGCGGAGGCGGAGTCACCTAGTGCAG | 3330 fluorescence intensity (a.u.) |
| TTCATTAAATGGTGTTTATGTGAATGTAGAAAGATGATTGCGGAGTCACCTAGTGCAG | 3470 fluorescence intensity (a.u.) |
| CAACTGATCATCTTGGTGGTTGGCAATGGTCATAGGATGACGGAGTCACCTAGTGCAG | 3200 fluorescence intensity (a.u.) |
| TATGCGTGGGTCACTGGGCCCACACGTCATCCTCACGTGGCGGAGTCACCTAGTGCAG | 49000 fluorescence intensity (a.u.) |
| GCCACGCCTAAGGTTAGGCAAATTTGACAGGTGTTTGGTTCGGAGTCACCTAGTGCAG | 3690 fluorescence intensity (a.u.) |
| ATCCCAGCGCTTTACAGTAGGCGCAGCTGCCACGCGTCGCCGGAGTCACCTAGTGCAG | 6380 fluorescence intensity (a.u.) |
| CTTCTTCTTCTTCCTGAGGTGGGTCAGGGTGGGCGTGGATCGGAGTCACCTAGTGCAG | 3620 fluorescence intensity (a.u.) |
| AGATAATGTTGCATTGCCTTCCGTCAGGTGACGTTTCTCCCGGAGTCACCTAGTGCAG | 4180 fluorescence intensity (a.u.) |
| GCTCATCGTCATCACACGTCGCCGTCCCTTTCGGTTTCATCGGAGTCACCTAGTGCAG | 6930 fluorescence intensity (a.u.) |
| TTATGTGATTTCTCTCTCCTCAACTAATTGAATATTGTATCGGAGTCACCTAGTGCAG | 3300 fluorescence intensity (a.u.) |
| CAGCTGTTCCATGGGAAATATCTAGTGCGTGTGTGTGGATCGGAGTCACCTAGTGCAG | 3530 fluorescence intensity (a.u.) |
| AGAGGGCAGAATACAAGAATTACATAAGTGACGCATGATTCGGAGTCACCTAGTGCAG | 3790 fluorescence intensity (a.u.) |

Source: paper PMC7819943, “Rice protein-binding microarrays: a tool to detect cis-acting elements near promoter regions in rice”
